These are yes or no findings as the source states them, for the method shown. Binding seen in cells or lysates may run through a third protein. Some results given as binding are weak or reduced against the parent protein; the word gives no strength.
Assays:
[1] = target: L-type voltage-gated calcium channel Cav1.2 (human (endogenous in ASCL1-hiNs)) (UniProt Q13936); assay: proximity ligation
[2] = target: L-type voltage-gated calcium channel Cav1.3 (human (endogenous in ASCL1-hiNs)) (UniProt Q01668); assay: proximity ligation

The chains behind the UniProt entries cited, without tags or fusion partners.
UniProt Q13936: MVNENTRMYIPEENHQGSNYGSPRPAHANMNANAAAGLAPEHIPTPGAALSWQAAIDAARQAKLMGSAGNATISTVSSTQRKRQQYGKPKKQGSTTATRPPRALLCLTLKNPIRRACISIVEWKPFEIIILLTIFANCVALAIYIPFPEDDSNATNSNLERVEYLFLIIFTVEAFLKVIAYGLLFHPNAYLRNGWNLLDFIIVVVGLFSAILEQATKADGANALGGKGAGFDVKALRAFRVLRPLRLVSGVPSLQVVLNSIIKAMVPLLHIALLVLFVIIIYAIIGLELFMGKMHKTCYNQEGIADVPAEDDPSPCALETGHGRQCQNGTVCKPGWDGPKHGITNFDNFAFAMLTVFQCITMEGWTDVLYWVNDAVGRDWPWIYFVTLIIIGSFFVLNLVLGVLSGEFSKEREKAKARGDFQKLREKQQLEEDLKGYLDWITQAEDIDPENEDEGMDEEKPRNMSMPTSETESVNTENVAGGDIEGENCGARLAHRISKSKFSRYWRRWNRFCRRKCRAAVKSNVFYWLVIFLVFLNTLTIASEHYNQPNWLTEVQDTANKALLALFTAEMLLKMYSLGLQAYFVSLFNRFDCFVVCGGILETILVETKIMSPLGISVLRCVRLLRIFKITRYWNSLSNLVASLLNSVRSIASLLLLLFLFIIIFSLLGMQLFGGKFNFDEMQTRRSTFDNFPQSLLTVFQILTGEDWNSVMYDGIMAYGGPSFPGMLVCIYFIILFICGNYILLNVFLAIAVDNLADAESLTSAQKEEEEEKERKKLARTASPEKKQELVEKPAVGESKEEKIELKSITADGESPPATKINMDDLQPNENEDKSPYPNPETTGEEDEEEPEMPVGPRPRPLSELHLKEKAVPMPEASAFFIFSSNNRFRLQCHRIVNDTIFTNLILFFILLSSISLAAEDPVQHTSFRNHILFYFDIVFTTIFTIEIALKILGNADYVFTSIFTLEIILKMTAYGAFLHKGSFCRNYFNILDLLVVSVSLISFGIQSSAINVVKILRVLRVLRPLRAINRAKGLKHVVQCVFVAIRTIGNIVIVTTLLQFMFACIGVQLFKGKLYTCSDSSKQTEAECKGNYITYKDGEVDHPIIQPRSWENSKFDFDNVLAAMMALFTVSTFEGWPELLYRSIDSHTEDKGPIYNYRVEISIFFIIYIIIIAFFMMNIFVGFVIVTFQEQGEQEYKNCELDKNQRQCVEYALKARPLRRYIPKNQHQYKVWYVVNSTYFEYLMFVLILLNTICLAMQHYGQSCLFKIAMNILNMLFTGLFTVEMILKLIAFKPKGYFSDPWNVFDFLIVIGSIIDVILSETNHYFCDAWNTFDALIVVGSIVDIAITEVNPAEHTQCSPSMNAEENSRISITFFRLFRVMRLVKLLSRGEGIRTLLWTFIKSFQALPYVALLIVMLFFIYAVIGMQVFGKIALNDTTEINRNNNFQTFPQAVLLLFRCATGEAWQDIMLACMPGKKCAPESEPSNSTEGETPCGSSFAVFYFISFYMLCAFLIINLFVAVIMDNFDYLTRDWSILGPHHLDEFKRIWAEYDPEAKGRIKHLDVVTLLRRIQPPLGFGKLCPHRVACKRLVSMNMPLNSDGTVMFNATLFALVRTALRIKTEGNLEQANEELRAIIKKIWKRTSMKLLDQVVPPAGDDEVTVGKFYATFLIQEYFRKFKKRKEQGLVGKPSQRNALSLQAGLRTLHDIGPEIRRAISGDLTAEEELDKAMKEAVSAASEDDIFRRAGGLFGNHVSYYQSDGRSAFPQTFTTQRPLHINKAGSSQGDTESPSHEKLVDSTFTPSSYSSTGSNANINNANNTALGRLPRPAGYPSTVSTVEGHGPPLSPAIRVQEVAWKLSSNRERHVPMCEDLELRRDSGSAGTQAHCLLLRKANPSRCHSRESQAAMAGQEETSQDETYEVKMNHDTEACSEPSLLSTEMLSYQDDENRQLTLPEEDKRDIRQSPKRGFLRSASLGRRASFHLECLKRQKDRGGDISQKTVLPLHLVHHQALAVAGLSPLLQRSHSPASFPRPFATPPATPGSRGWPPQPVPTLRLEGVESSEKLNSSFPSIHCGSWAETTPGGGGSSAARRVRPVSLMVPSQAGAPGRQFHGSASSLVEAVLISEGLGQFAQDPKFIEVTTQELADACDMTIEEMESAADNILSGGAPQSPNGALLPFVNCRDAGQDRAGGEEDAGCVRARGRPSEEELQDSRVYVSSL
UniProt Q01668: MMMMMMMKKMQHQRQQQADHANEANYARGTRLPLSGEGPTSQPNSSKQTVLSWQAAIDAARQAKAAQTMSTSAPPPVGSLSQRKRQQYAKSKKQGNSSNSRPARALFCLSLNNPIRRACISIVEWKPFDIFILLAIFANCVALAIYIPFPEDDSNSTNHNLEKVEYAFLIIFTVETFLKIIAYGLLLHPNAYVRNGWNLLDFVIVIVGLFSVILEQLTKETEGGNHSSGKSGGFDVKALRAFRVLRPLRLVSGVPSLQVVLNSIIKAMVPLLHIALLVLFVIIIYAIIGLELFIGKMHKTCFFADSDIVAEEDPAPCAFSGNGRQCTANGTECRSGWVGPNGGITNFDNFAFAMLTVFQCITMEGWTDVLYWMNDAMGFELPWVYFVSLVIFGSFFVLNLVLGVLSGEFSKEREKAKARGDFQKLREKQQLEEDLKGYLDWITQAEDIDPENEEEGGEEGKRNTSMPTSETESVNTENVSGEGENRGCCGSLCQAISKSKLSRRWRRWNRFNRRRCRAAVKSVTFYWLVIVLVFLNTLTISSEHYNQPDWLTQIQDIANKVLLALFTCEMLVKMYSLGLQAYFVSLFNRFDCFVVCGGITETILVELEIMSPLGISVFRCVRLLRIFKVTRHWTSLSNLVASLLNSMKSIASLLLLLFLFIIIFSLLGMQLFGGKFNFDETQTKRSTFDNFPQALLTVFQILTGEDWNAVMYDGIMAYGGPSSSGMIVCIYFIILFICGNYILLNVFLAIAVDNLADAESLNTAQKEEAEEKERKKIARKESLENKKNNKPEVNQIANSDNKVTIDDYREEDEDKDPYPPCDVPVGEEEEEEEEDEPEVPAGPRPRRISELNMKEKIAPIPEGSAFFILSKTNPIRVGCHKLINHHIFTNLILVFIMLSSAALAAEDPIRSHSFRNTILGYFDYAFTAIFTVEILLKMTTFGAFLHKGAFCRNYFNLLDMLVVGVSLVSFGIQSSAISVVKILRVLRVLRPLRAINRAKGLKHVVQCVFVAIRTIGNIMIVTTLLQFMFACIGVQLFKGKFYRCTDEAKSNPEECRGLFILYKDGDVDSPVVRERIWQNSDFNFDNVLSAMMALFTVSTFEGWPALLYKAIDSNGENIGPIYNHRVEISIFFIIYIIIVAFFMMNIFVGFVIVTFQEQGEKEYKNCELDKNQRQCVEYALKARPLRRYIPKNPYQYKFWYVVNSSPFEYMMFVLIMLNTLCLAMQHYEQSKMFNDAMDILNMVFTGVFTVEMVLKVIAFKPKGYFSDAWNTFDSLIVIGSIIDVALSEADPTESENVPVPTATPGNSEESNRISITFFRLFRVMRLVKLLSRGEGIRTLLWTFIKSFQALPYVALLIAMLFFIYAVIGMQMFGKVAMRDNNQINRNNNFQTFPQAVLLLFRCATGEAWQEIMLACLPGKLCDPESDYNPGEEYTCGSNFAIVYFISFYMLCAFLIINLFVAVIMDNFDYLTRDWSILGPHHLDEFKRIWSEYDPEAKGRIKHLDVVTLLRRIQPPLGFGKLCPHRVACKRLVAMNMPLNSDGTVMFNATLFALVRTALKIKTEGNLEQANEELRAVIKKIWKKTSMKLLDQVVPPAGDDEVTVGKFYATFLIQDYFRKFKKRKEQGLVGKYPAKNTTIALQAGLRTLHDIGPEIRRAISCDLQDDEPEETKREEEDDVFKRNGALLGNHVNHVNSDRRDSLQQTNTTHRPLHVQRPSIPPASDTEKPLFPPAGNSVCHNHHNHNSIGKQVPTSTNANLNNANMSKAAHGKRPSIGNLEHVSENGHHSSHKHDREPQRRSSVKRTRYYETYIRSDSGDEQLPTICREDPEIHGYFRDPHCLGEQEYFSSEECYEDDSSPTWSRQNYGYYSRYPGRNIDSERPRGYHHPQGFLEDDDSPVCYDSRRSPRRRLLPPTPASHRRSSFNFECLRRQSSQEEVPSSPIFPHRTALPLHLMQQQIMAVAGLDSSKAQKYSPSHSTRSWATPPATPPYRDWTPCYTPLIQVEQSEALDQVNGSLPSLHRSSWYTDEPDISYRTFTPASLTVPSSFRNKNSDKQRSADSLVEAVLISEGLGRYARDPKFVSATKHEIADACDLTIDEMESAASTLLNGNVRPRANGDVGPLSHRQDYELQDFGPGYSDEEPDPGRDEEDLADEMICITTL

binding [2]: binds
B1: Bridging Integrator 1 (BIN1) (protein, UniProt O00499 1-593)
chain: MAEMGSKGVTAGKIASNVQKKLTRAQEKVLQKLGKADETKDEQFEQCVQNFNKQLTEGTRLQKDLRTYLASVKAMHEASKKLNECLQEVYEPDWPGRDEANKIAENNDLLWMDYHQKLVDQALLTMDTYLGQFPDIKSRIAKRGRKLVDYDSARHHYESLQTAKKKDEAKIAKPVSLLEKAAPQWCQGKLQAHLVAQTNLLRNQAEEELIKAQKVFEEMNVDLQEELPSLWNSRVGFYVNTFQSIAGLEENFHKEMSKLNQNLNDVLVGLEKQHGSNTFTVKAQPSDNAPAKGNKSPSPPDGSPAATPEIRVNHEPEPAGGATPGATLPKSPSQLRKGPPVPPPPKHTPSKEVKQEQILSLFEDTFVPEISVTTPSQFEAPGPFSEQASLLDLDFDPLPPVTSPVKAPTPSGQSIPWDLWEPTESPAGSLPSGEPSAAEGTFAVSWPSQTAEPGPAQPAEASEVAGGTQPAAGAQEPGETAASEAASSSLPAVVVETFPATVNGTVEGGSGAGRLDLPPGFMFKVQAQHDYTATDTDELQLKAGDVVLVIPFQNPEEQDEGWLMGVKESDWNQHKELEKCRGVFPENFTERVP
binding [1]: binds
